Reference: PubChem BioAssay AID248 (DTP/NCI, 2004)
The list shows only some results of the screen, not a fair sample: it gathers tests that were run many times, whatever their T/C, doses with no T/C, and many T/C values between a quarter and a half above the control. Further doses and runs are listed elsewhere. T/C: endpoint of the treated group in % of that of the vehicle group. Some doses have a count of surviving animals in place of a T/C: the source holds a T/C of zero for them, seemingly a mark for toxic or unscored doses. Some doses without a T/C left all or most animals alive at the check, yet need not have been tolerated: survival well below the control is almost never listed, so the zero probably covers shortened survival too. Counts of survivors are from the toxicity check (mostly the fifth day) where no day follows; animals may have died later. Schedules are NCI's codes, read here as Q, the interval in days (D) or hours (H), X, the number of doses. For survival time, the PubChem record calls one and a half times the control and up active, and a quarter to a half above the control has no call in these data; cut-offs in other NCI protocols can differ.

Tested on: L1210 leukemia ip in BDF1 mice, survival T/C
Assay: NCI In Vivo Anticancer Drug Screen. Data for tumor model L1210 Leukemia (intraperitoneal) in B6D2F1 (BDF1) mice
Settings: T/C endpoint: mean survival time, higher T/C = longer survival
[1] = dose: 200.0 mg/kg/injection, schedule: Q04DX003 (ip), vehicle: Klucel (hydroxypropylcellulose) (HPC)
[2] = dose: 400.0 mg/kg/injection, schedule: Q01DX001 (ip), vehicle: saline

Q: What does the source list for CCc1n[nH]c(=S)n1N?
A: survivor count (dose: 100.0 mg/kg/injection, schedule: Q04DX003 (ip), vehicle: Klucel (hydroxypropylcellulose) (HPC)): 0 of 6; survivor count [1]: 0 of 6; survivor count (dose: 400.0 mg/kg/injection, schedule: Q04DX003 (ip), vehicle: Klucel (hydroxypropylcellulose) (HPC)): 0 of 6

Q: How did the survivor count [2] turn out when Nc1ncnc2nc(I)[nH]c12 was run?
A: The survivor count was 0 of 4.

Q: With O=C(O)C1CCC(C(=O)O)c2ccccc21 (stereo not drawn) as the compound, how does the survivor count [1] read?
A: The survivor count was 6 of 6.

Q: B1CCN1 was tested. Which survivor count (dose: 38.0 mg/kg/injection, schedule: Q01DX001 (ip), vehicle: saline) did it give?
A: Its survivor count is 1 of 6.

Q: What about the survivor count (dose: 75.0 mg/kg/injection, schedule: Q01DX001 (ip), vehicle: saline) of the same compound?
A: The survivor count was 0 of 6.

Q: What about the survivor count (dose: 150.0 mg/kg/injection, schedule: Q01DX001 (ip), vehicle: saline) of the same compound?
A: Its survivor count is 0 of 6.

Q: What about the survivor count (dose: 300.0 mg/kg/injection, schedule: Q01DX001 (ip), vehicle: saline) of the same compound?
A: Its survivor count is 0 of 6.

Q: For Cc1ccc2c(ccc(/C=C\c3cc(C)c4cccnc4c3O)[n+]2C)c1, which survivor count (dose: 200.0 mg/kg/injection, schedule: Q01DX001 (ip), vehicle: carboxymethylcellulose (CMC)) is on record?
A: The survivor count was 3 of 6.

Q: And the survivor count (dose: 400.0 mg/kg/injection, schedule: Q01DX001 (ip), vehicle: carboxymethylcellulose (CMC))?
A: Its survivor count is 0 of 6.

Q: CC(C)(CBr)COS(=O)(=O)c1ccc(Br)cc1 was tested. Which survivor count (dose: 200.0 mg/kg/injection, schedule: Q01DX009 (ip), vehicle: saline with Tween-80) did it give?
A: Its survivor count is 3 of 3.

Q: Which survivor count (dose: 200.0 mg/kg/injection, schedule: Q01DX001 (ip), vehicle: saline) does the source give for CS(=O)(=O)OCCCS(=O)(=O)O here?
A: Its survivor count is 2 of 4.

Q: What about the survivor count [2] of the same compound?
A: The survivor count was 1 of 4.

Q: How did the survivor count (dose: 200.0 mg/kg/injection, schedule: Q01DX001 (ip), vehicle: Klucel (hydroxypropylcellulose) (HPC)) turn out when O=C1NCCN1c1cccc([N+](=O)[O-])c1 was run?
A: The survivor count was 2 of 6.

Q: And the survivor count (dose: 400.0 mg/kg/injection, schedule: Q01DX001 (ip), vehicle: Klucel (hydroxypropylcellulose) (HPC))?
A: The survivor count was 1 of 6.

Q: With [CH3][Sn]1([CH3])[CH2]CCC[CH2]1 as the compound, how does the survivor count (dose: 100.0 mg/kg/injection, schedule: Q01DX009 (ip), vehicle: saline) read?
A: The survivor count was 0 of 3.

Q: What about the survivor count (dose: 200.0 mg/kg/injection, schedule: Q01DX009 (ip), vehicle: saline) of the same compound?
A: Its survivor count is 0 of 3.

Q: What about the survivor count (dose: 400.0 mg/kg/injection, schedule: Q01DX009 (ip), vehicle: saline) of the same compound?
A: Its survivor count is 0 of 3.

Q: For O=C(CCl)OCCI, which survivor count (dose: 50.0 mg/kg/injection, schedule: Q04DX003 (ip), vehicle: acetone) is on record?
A: The survivor count was 6 of 6.

Q: And the survivor count (dose: 100.0 mg/kg/injection, schedule: Q04DX003 (ip), vehicle: acetone)?
A: The survivor count was 5 of 6.

Q: What about the survivor count (dose: 200.0 mg/kg/injection, schedule: Q01DX001 (ip), vehicle: acetone) of the same compound?
A: The survivor count was 1 of 6.

Q: What about the survivor count (dose: 400.0 mg/kg/injection, schedule: Q01DX001 (ip), vehicle: acetone) of the same compound?
A: The survivor count was 0 of 6.

Q: Which results are given for C=CC[N+](CC=C)(CC=C)CCC[N+](CC=C)(CC=C)CC=C?
A: survivor count (dose: 100.0 mg/kg/injection, schedule: Q01DX009 (ip), vehicle: water): 0 of 6; survivor count (dose: 100.0 mg/kg/injection, schedule: Q04DX003 (ip), vehicle: water): 2 of 6; survivor count (dose: 200.0 mg/kg/injection, schedule: Q04DX003 (ip), vehicle: water): 0 of 6; survivor count (dose: 400.0 mg/kg/injection, schedule: Q04DX003 (ip), vehicle: water): 0 of 6

Q: For O=[N+]([O-])c1ccc(OC(=S)Cl)cc1, which survivor count (dose: 25.0 mg/kg/injection, schedule: Q04DX002 (ip), vehicle: saline with Tween-80) is on record?
A: The survivor count was 3 of 3.

Q: And the survivor count (dose: 50.0 mg/kg/injection, schedule: Q04DX002 (ip), vehicle: saline with Tween-80)?
A: The survivor count was 3 of 3.

Q: And the survivor count (dose: 100.0 mg/kg/injection, schedule: Q04DX002 (ip), vehicle: saline with Tween-80)?
A: Its survivor count is 3 of 3.

Q: What about the survivor count (dose: 200.0 mg/kg/injection, schedule: Q04DX003 (ip), vehicle: saline with Tween-80) of the same compound?
A: Its survivor count is 3 of 6.

Q: What about the survivor count (dose: 400.0 mg/kg/injection, schedule: Q04DX003 (ip), vehicle: saline with Tween-80) of the same compound?
A: Its survivor count is 3 of 6.

Q: For O=C(Nc1cccnc1)c1ccc([N+](=O)[O-])s1, which T/C (dose: 200.0 mg/kg/injection, schedule: Q01DX005 (ip), vehicle: saline) is on record?
A: The T/C was 125 % of control.
